Assay results published in PubChem BioAssay AID901 (National Center for Advancing Translational Sciences (NCATS), 2007).
The other results are listed elsewhere or left out. Shown are side measurements of this screen, not its main read-out; they come without a call. Compounds called inactive in the main read-out are mostly missing here. The note in brackets gives the kind of curve behind each potency; many fits are weak.

Experiment: qHTS Assay for Identifying the Cell-Membrane Permeable IMPase Inhibitors
Details: CHO-M1 cells, IP1 accumulation, HTRF TR-FRET ratio; measured here: donor channel 620 nm AC50

Row | SMILES | AC50
1 | COCc1cc(C(C)=O)ccc1OC | 1 µM [falling, single point]
2 | Cc1ccc2oc(-c3cccc(NC(=O)c4cc(-n5cnnc5)ccc4Cl)c3)nc2c1 | 25.1 µM [rising, single point]
3 | O=c1c2cc(Br)cc(Br)c2oc2nc3n(c(=O)c12)CCCS3 | 31.6 µM [rising, single point]
4 | O=C(COC(=O)CNC(=O)c1ccccc1)Nc1cccc(Br)c1 | 0.0112 µM [falling, full curve, poor fit]
5 | COC(=O)c1sc(-c2ccccc2)cc1NC(=O)c1ccc(F)cc1 | 2.51 µM [rising, full curve, poor fit]
6 | O=C(OCC(=O)N1CCN(C(=O)c2ccco2)CC1)c1ccccc1OCc1ccccc1 | 7.94 µM [falling, partial curve, poor fit]
7 | COc1cc(OC)cc(C(=O)N2CCCc3ccccc32)c1 | 5.01 µM [rising, partial curve]
8 | COc1cc(CNc2ccc3[nH]c(=O)[nH]c3c2)ccc1OCC(=O)NC(C)(C)C | 7.94 µM [falling, single point]
9 | CCOC(=O)c1c(C#N)cnn1-c1ccc(C)cc1 | 0.0251 µM [falling, single point]
10 | O=C1OC(N2CCN(C/C=C/c3ccccc3)CC2)c2ccccc21 (stereo unspecified) | 0.0398 µM [rising, full curve, poor fit]
11 | Cc1cc(C)n2nc(SCC(=O)Nc3ccc(O)cc3)nc2n1 | 0.178 µM [falling, full curve, poor fit]
12 | CCc1ccccc1NC(=S)NCc1ccc2c(c1)OCO2 | 6.31 µM [rising, single point]
13 | Cc1ccc2c3c([nH]c2c1C)-c1nonc1CC3 | 3.16 µM [falling, single point]
14 | Cc1ccc(C(C)C)c(OCCNC(=S)Nc2cccc3ccccc23)c1 | 1.58 µM [falling, partial curve]
15 | N#Cc1cc(Sc2ccccn2)c(Sc2ccccn2)cc1C#N | 31.6 µM [rising, single point]
16 | COc1cccc(CNC(=O)Nc2cccs2)c1 | 0.398 µM [falling, full curve, poor fit]
17 | C(=N\c1c(-c2ccccc2)nc2n1CCS2)/c1ccccc1 | 4.47 µM [falling, full curve, poor fit]
18 | Cc1cc(/C=C2\SC(=S)NC2=O)c(C)n1C1CC1 | 31.6 µM [falling, single point]
19 | Cc1cc(-c2ccc(N=Nc3ccc4c(S(=O)(=O)O)cc(S(=O)(=O)O)c(N)c4c3O)c(C)c2)ccc1N=Nc1ccc2c(S(=O)(=O)O)cc(S(=O)(=O)O)c(N)c2c1O | 6.31 µM [falling, partial curve, poor fit]
20 | CCCOC(=O)c1c(N)sc2c1CCC2 | 7.94 µM [rising, partial curve, poor fit]
21 | CCn1ncc(Br)c1C(=O)Nc1cc(C(=O)OC)ccc1C(=O)OC | 31.6 µM [rising, single point]
22 | Cc1ccc(S(=O)(=O)N2CCCN(c3nc4cc(C)ccc4cc3C#N)CC2)cc1 | 31.6 µM [rising, single point]

Taken from above.
Cc1ccc(C(C)C)c(OCCNC(=S)Nc2cccc3ccccc23)c1 – AC50: 1.58 µM [falling, partial curve]
CCCOC(=O)c1c(N)sc2c1CCC2 – AC50: 7.94 µM [rising, partial curve, poor fit]
Cc1cc(/C=C2\SC(=S)NC2=O)c(C)n1C1CC1 – AC50: 31.6 µM [falling, single point]
O=c1c2cc(Br)cc(Br)c2oc2nc3n(c(=O)c12)CCCS3 – AC50: 31.6 µM [rising, single point]

Following part:

Row | SMILES | AC50
23 | Cc1ccc(/C(N)=N/OC(=O)CCc2ccccc2)cc1 | 0.398 µM [rising, full curve, poor fit]
24 | CCN=C1SC(C(=O)NCCc2ccccc2)CC(=O)N1CC (stereo unspecified) | 0.00501 µM [rising, full curve, poor fit]
25 | CCOc1ccc2nc(NCCCNS(=O)(=O)c3ccc(C)cc3)c(C#N)cc2c1 | 0.02 µM [falling, full curve]
26 | CN(c1ccccc1C(=O)O)S(C)(=O)=O | 31.6 µM [falling, single point]
27 | Cc1cc2nc(C)n(CCCNC(=O)Nc3ccccc3)c2cc1C | 10 µM [falling, partial curve]
28 | CC1CCC(C(C)C)C(OC(=O)COC(=O)c2ccc(=O)[nH]c2)C1 (stereo unspecified) | 0.0316 µM [falling, full curve, poor fit]
29 | O=C(/C=C/c1ccc(O)c(O)c1)OC(Cc1ccc(O)c(O)c1)C(=O)O (stereo unspecified) | 20 µM [falling, partial curve]
30 | CS(=O)(=O)N(CC(=O)NCCC1=CCCCC1)c1ccc2c(c1)OCO2 | 5.01 µM [rising, single point]
31 | Cc1ccc2[nH]c3c(c2c1)CN(C)CC3 | 25.1 µM [falling, single point]
32 | CCCCCOC(=O)C1=C(C)NC(=O)NC1c1ccccc1OCC (stereo unspecified) | 2 µM [rising, single point]
33 | CCOC(=O)c1ccc2[nH]c3c(c2c1)CN(C)CC3 | 0.0794 µM [falling, full curve, poor fit]
34 | COc1ccc(-c2ccc(N)[n+](CCCC(=O)O)n2)cc1 | 6.31 µM [rising, single point]
35 | CCOc1ccccc1C(=O)Nc1cccc(-c2nnc(-c3ccccc3)o2)c1 | 0.0126 µM [rising, full curve, poor fit]
36 | Cc1ccc(NC(=O)Cn2nc(-c3ccc(Cl)cc3)c3ccccc3c2=O)cc1 | 14.1 µM [rising, partial curve]
37 | COc1ccccc1N(CC(=O)NCCSc1ccccc1)S(=O)(=O)c1ccc(C)cc1 | 5.01 µM [falling, full curve, poor fit]
38 | CCCCc1nc2n[nH]c(N)c2c2c1CCC2 | 35.5 µM [rising, single point]
39 | CSc1nc2sc3c(c2c(=O)n1-c1ccc(C)cc1)CCCC3 | 11.2 µM [rising, single point]
40 | CC1(C)OC(c2ccccc2)=C/C(=C/C=Nc2ccccc2)O1 | 0.2 µM [rising, single point]
41 | COC(=O)NNC(=O)c1cccc(C)c1 | 0.126 µM [falling, full curve]
42 | CCOC(=O)c1ccc(NS(=O)(=O)c2cc(-c3nnnn3CC)ccc2OC)cc1 | 31.6 µM [falling, single point]
43 | CCc1ccc(CNC(=O)c2cc3c(C)nc4ccccc4c3o2)cc1 | 35.5 µM [falling, single point]
44 | O=[N+]([O-])c1ccc(Cl)c(/C=N/NC(=S)Nc2ccccc2)c1 | 0.158 µM [falling, full curve, poor fit]

Row | SMILES | AC50
45 | COc1ccc(/C(O)=C2/C(=O)C(=O)N(c3nc(C)c(C)s3)C2c2ccco2)cc1 (stereo unspecified) | 15.8 µM [rising, single point]
46 | O=C1NCCCC2c3cc(O)c4ccccc4c3OC12N1CCCCC1 (stereo unspecified) | 3.98 µM [falling, full curve]
47 | O=c1[nH]c2ccc(S(=O)(=O)N3CCC(Cc4ccccc4)CC3)cc2o1 | 6.31 µM [rising, single point]
48 | CCCc1nnc(NC(=O)C(CC)Sc2nnc3c4ccccc4n(C)c3n2)s1 (stereo unspecified) | 0.708 µM [rising, single point]
49 | CCn1ncc(/C=C/C(=O)NCc2cnn(C)c2C)c1C | 6.31 µM [falling, full curve, poor fit]
50 | CCn1cc(C(=O)NCC2CCCO2)c(=O)c2cc(S(=O)(=O)N3CCCCC3)ccc21 (stereo unspecified) | 0.1 µM [falling, full curve]
51 | CCOC(=O)C1CCCN(C(=O)CN2C(=O)COc3ccc(C(C)(C)C)cc32)C1 (stereo unspecified) | 6.31 µM [rising, full curve, poor fit]
52 | CCCOc1ccc(C(=O)Nc2ccc(NC(=O)c3ccccc3)c(C)c2)cc1 | 0.562 µM [falling, full curve]
53 | COCCCN1C(=O)C(=O)/C(=C(/O)c2ccc(OCC(C)C)cc2C)C1c1cccnc1 (stereo unspecified) | 31.6 µM [rising, single point]
54 | CNc1ccc(Br)cc(C(=O)/C=C/c2cccc(OC)c2OC)c1=O | 31.6 µM [falling, single point]
55 | Cc1cc(C)nc(SCc2nc3nc(C)cc(C)n3c2Br)n1 | 0.01 µM [rising, full curve, poor fit]
56 | CCOc1ccc2nc(SCc3cccc(C)c3)nc(C)c2c1 | 3.98 µM [rising, single point]
57 | COc1ccc(OC)c(C2/C(=C(/O)c3cnn(-c4ccccc4)c3C)C(=O)C(=O)N2CCN(C)C)c1 (stereo unspecified) | 0.562 µM [falling, full curve]
58 | CC(C)C1CC(O)(C2(O)CCCCC2)ON1 (stereo unspecified) | 28.2 µM [falling, single point]
59 | COc1ccc(-c2csc(Nc3cccnc3)n2)cc1OC | 10 µM [falling, partial curve, poor fit]
60 | N#CC(C(=O)Nc1ccccc1)=C1Nc2ccccc2N1 | 1.26 µM [falling, full curve, poor fit]
61 | Cc1ccc(NC(=O)Cn2c(=O)n(CC(=O)NCCc3ccccc3)c(=O)c3ccccc32)cc1C | 25.1 µM [rising, single point]
62 | COCCCn1[nH]c2c3c(ccc2c1=O)C(=O)c1ccccc1C3=O | 15.8 µM [falling, partial curve]
63 | COc1ccc(NC(C)=O)cc1NC(=O)CSc1nnc(-c2ccccc2)n1N | 35.5 µM [falling, single point]
64 | CCOC(=O)c1csc(NC(=O)CSc2nnnn2-c2ccc3c(c2)OCCO3)n1 | 0.1 µM [falling, single point]
65 | O=C(NCCC1=CCCCC1)C1CCN(Cc2cnn(-c3ccccc3)c2-n2cccc2)CC1 | 0.0158 µM [rising, full curve, poor fit]
66 | COCCNC(=O)C(c1ccccc1C)N(C(=O)Cn1nnc2ccccc21)c1cccnc1 (stereo unspecified) | 31.6 µM [falling, single point]

Two entries from above, tab-delimited.
Row	SMILES	AC50
26	CN(c1ccccc1C(=O)O)S(C)(=O)=O	31.6 µM [falling, single point]
46	O=C1NCCCC2c3cc(O)c4ccccc4c3OC12N1CCCCC1 (stereo unspecified)	3.98 µM [falling, full curve]
